Assay results taken from paper PMC10252594 (Cancers, 2023).

System: LAPC-4 cells
Assay: LAPC-4 cell viability proliferation and combination index assays (MTS, 6 days)
Type: cell-based
Details: Homo sapiens, LAPC4, 144 h, LAPC-4, six days; single drugs and 1:1 combinations; read-out: IC50 (Figure 2B)
Method: LAPC-4 cells (1 × 10^4 cells/well) were seeded in triplicate in 96-well plates in IMDM (Iscove’s modified Dulbecco’s medium) (90 μL) supplemented (v/v) with 5% fetal FBS, 1% L-glutamine, 1% insulin, and 1% penicillin/streptomycin. The cells were incubated at 37 °C in a 5% CO2 humidified atmosphere for 24 h. […] After 6 days of incubation, the cell proliferation was determined by adding 10 µL of MTS followed by incubation at 37 °C for 4 h. Plates were then analyzed at 490 nm using a Tecan M-200 microplate reader (Männedorf, Switzerland). Using GraphPad Prism 7 software, the IC50 values were calculated. The values represent the average of two independent experiments performed in triplicate. According to the Chou–Talalay method and using the following formula, the CI (combination) was calculated. CI=(D)1/(DX)1+(D)2/(DX)2
Denominators (DX)l and (DX)2 are the doses of individual drugs required to achieve a given effect level, and numerators (D)1 and (D)2 are the concentrations of each drug present in combination to trigger the same effect level. When the drugs interact additively, CI = 1, but a CI < 1 indicates a synergistic interaction, and a CI > 1 indicates an antagonistic effect.

Compound `CNC(=O)c1ccc(N2C(=S)N(c3ccc(C#N)c(C(F)(F)F)c3)C(=O)C2(C)C)cc1F` [enzalutamide, reference compound] has an IC50 of 34.8 µM.
